## Results of single-concentration screens

By UniProt entry, the sequences of proteins in these tests, tags left out. Residues count along the entry.
UniProt Q4DA54, 1-478: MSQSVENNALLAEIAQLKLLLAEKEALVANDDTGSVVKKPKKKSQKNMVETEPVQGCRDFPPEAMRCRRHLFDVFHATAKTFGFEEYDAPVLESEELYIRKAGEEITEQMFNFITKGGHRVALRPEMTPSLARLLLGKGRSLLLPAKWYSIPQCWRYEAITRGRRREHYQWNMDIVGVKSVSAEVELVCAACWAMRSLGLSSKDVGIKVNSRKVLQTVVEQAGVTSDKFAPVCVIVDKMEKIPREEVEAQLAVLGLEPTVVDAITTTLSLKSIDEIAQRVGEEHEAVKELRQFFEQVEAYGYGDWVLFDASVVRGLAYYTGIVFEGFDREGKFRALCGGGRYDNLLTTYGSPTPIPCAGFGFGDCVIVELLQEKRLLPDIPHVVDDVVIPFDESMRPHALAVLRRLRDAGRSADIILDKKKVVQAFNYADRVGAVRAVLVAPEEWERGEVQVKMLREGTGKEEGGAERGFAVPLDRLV

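Enzyme assay of histidyl-tRNA synthetase; the read-out is not stated. Target: Histidine-tRNA ligase, Trypanosoma cruzi CL Brener (UniProt Q4DA54). Concentration: 30 µM. Higher reads as stronger inhibition (inferred: compounds with an IC50 in retests scored well above the rest). About 69,000 compounds were tested under these conditions; 0.045% (about 31) showed 50% or more at least once.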

Results are given as percent effect.
How 0% and 100% were set is not recorded. Most values in the screen are low, and negative values occur.
The compounds are a random part of those screened.

| Compound | effect |
|---|---|
| `Cc1ccc(C(=O)NCc2cccnc2N(C)C)o1` | 4.706 |
| `CCOC(=O)N(C)C1CCN(Cc2cnc3ccccn23)CC1` | 0.5525 |
| `Cc1cc(CN2C[C@@H]3CCCO[C@@H]3[C@H](Nc3ccccn3)C2)no1` | 3.39 |
| `O=C(NCc1ccccc1)c1nnc2ccc(N3CCOCC3)cc2n1` | 2.732 |
| `COCCCN(Cc1ccncc1)C(=O)C1COc2ccccc2C1` (stereo not given) | 2.353 |
| `Cc1cc(C(=O)Nc2ccc(OCC3CCOCC3)cc2)[nH]n1` | -3.784 |
| `COc1cccc(CNC2CCc3ccc(C)cc32)n1` (stereo not given) | -1.724 |
| `c1ccc(-c2nc(CCNCc3ccccn3)co2)cc1` | 13.13 |
| `Cc1ccoc1C(=O)NC1CCN(Cc2cccc3ccccc23)CC1` | 10.7 |
| `Cc1cnc(N2CC3(CCN(C(=O)c4cccnc4)C3)C2)nc1` | 1.961 |
| `CS(=O)(=O)NC[C@]12COC[C@H]1CN(C(=O)c1ccccc1)C2` | -78.26 |
| `Cc1cnn(CC2CCCN2Cc2coc(-c3ccc(F)cc3)n2)c1` (stereo not given) | 7.975 |
| `Cc1nc(COc2cccc(C#N)c2)no1` | 0 |
| `NCC1(c2cccc(C(F)(F)F)c2)CCOCC1` | 0.5348 |
| `CCc1nnc(CN(C)C[C@@H]2CCCN3CCCC[C@H]23)o1` | 2.618 |
| `CC(C)c1nncn1CCNC(=O)c1c(O)cc(F)cc1F` | 7.921 |
| `CN(CC(=O)Nc1nc2c(s1)CCC2)C(=O)c1cccs1` | 5.102 |
| `Cc1cc(C(N)=O)c(N2C[C@@H](C)[C@@](C)(O)C2)nc1C` | -6.186 |
| `CS(=O)(=O)NC[C@@H]1OC[C@H]2CN(Cc3ccccc3)CC[C@H]21` | 8.889 |
| `CC(C)C(c1cccnc1)N(C)C(=O)Cc1ccc(O)cc1` (stereo not given) | 5.556 |
| `CC(=O)N1CCNCC1c1cccc(C(=O)N(C)C)c1` (stereo not given) | 1.622 |
| `CC(C#N)CN(C)Cc1ccc(Cl)c2cccnc12` (stereo not given) | 0.5587 |
| `CCC(C)(O)CNC(=O)Nc1ccc(C)cc1Br` (stereo not given) | 4.819 |
| `COc1ccc(C(NC(=O)NCc2nnc3n2CCC3)C2CC2)cc1` (stereo not given) | 1.136 |
| `c1ccc(-c2noc(CCCN3CCCC3Cn3cncn3)n2)cc1` (stereo not given) | 8.721 |
| `CCCn1nccc1S(=O)(=O)N1CCC2(CCCN(C(C)C)C2=O)C1` (stereo not given) | -1.149 |
| `CC(C)c1nnc2n1CC(CNC/C=C/c1ccccc1)CC2` (stereo not given) | 9.845 |
| `CC(CNC(=O)c1cccnc1Oc1cccnc1)N(C)C` (stereo not given) | -0.8333 |
| `CS(=O)(=O)N1Cc2ccccc2CC2(CCN(Cc3ccccn3)C2)C1` (stereo not given) | 13.61 |
| `Cc1ccc(CNC(=O)NCCCn2nc3ccccn3c2=O)s1` | 0 |
| `O[C@H]1COCCN(Cc2cccc(C(F)(F)F)c2)C1` | 3.96 |
| `CN(CCO)Cc1nnc(C2CCN(C[C@H]3[C@@H]4CNC[C@@H]43)CC2)n1C` | 3.352 |
| `Cc1nc(C)c(CC(=O)N2C[C@@H](C(=O)O)[C@H](c3ccncc3)C2)s1` | 5.435 |
| `CC(OCC1CC1)C(=O)NCc1cccc(CN2CCCC2=O)c1` (stereo not given) | 0 |
| `CN(C)C(=O)NC1COC2(CCN(Cc3ccc(Cl)c(F)c3)CC2)C1` (stereo not given) | 5.911 |
| `CCc1cc(NCCS(=O)(=O)N(C)C)nc(N2CCOCC2)n1` | 5.263 |
| `Cc1cc(CNC(=O)Nc2ccc(C(=O)NC3CC3)cc2)no1` | 0 |
| `CC1CCc2[nH]c(=O)c(C(=O)N3CCc4ccccc4C3)cc2C1` (stereo not given) | 2.484 |
| `NC(=O)C(Nc1ccc(Cl)cc1)c1ccc(F)cc1` (stereo not given) | 3.097 |
| `Nc1nccnc1C1CN(C(=O)c2cnccn2)CCO1` (stereo not given) | 7.463 |
| `Cc1cccc2c1nc(CCO)n2-c1ccc(C(=O)N2CCCC2)o1` | 5.759 |
| `Cc1nc(CN2CCCC(N(C)Cc3nccn3C)C2)no1` (stereo not given) | 0.565 |
| `Cc1nn(C)c(Cl)c1C1CCCN1Cc1cccc(C(N)=O)c1` (stereo not given) | 3.429 |
| `O=C(NCCc1noc(C2CCCC2)n1)c1cn2ccsc2n1` | -8.8 |
| `O=C(C1=CCCC1)N1C[C@@H]2COC[C@]2(COCC2CC2)C1` | 3.175 |
| `Cc1nc(C(=O)N2C[C@@H]3COC[C@]3(COCc3cccnc3)C2)cs1` | 5.376 |
| `Cc1cc(C2CCCN2Cc2nc3ccccc3o2)on1` (stereo not given) | 6.105 |
| `NC(=O)C1CCCN1CCCc1ccc(Cl)cc1` (stereo not given) | 4.902 |
| `CSc1ccccc1CN1C[C@@H]2CC[C@H](C1)N(CC1CC1)C2=O` | 0.5025 |
| `CCn1ncnc1C(C)NC(=O)C1CCN(C(C)C)CC1` (stereo not given) | 1.695 |
| `CC(Sc1nnc(C2CC2)n1CC(N)=O)c1ccc(F)cc1F` (stereo not given) | 2.89 |
| `NC(=O)NCC(=O)N1C[C@H]2CC[C@@H]1CN(Cc1ccccc1)C2` | 4.959 |
| `CCN1CCCC(CNC(=O)C2(c3cc(C)cc(C)c3)CCC2)C1` (stereo not given) | 4.046 |
| `CO[C@@H]1CCN(Cc2ccoc2)[C@@H]2CN(Cc3ccco3)C[C@@H]21` | 3.659 |
| `CC(C)(C)n1cc(C#N)cc1NC(=O)CCNC(=O)c1ccco1` | 1.136 |
| `Cc1cnn(C2CN(CC(O)COc3ccc(C#N)cc3)C2)c1` (stereo not given) | 9.821 |
| `CNS(=O)(=O)CC(=O)N1CCC(c2ccc(F)c(F)c2)CC1` | 4.902 |
| `CCCn1[nH]cc/c1=N\C(=O)CN1CCc2cnc(C(C)C)nc2C1` | 9.038 |
| `O=C(NCCc1coc(-c2ccccc2)n1)NC1CC1` | 3.39 |
| `O=C(c1cncc(NCC2COc3ccccc3C2)n1)N1CCOCC1` (stereo not given) | 3.478 |
| `Cc1cccc(CN2CCC(Cc3ccccc3F)CC2)n1` | 8.108 |
| `O=C([C@H]1CCCO1)N1CCc2ncnc(NC3CC3)c2CC1` | 4.813 |
| `Cc1nc(C)n(CC2CN(CCc3ccccc3Cl)CCO2)n1` (stereo not given) | 5.155 |
| `CC(C)(C)OC(=O)NCCc1csc(N2CCCC2)n1` | 10 |
| `CC(=O)N[C@@H]1CN(Cc2ccccc2-n2nc(C)cc2C)C[C@H]1C(C)C` | -8.152 |
| `Cc1cc(CNc2ccc(C(=O)N3CCc4ccccc43)cn2)on1` | 5.946 |
| `O=C(NCCc1[nH]nc2c1CCCC2)C1CCCN(Cc2ccco2)C1` (stereo not given) | -15.64 |
| `Cc1cc2ccccc2n1CCC(=O)N1CCCC2(CC1)CNC(=O)O2` (stereo not given) | 11.4 |
| `CCC[C@H]1CN(Cc2cc(C#N)n(C)c2C)C[C@@H]1N(C)C` | 2.646 |
| `O[C@]1(c2ccccn2)CC[C@@H]2CN(Cc3cccc4ncccc34)C[C@@H]21` | 3.784 |
| `CCC1CNCc2cc3c(OC)ccc(OC)c3nc2O1` (stereo not given) | 6 |
| `CCC(=O)N1CCCC1c1nccnc1Nc1nc(C)cc(C)n1` (stereo not given) | 0 |
| `COc1ccc(Cl)c(-c2noc3ncn(CCC(=O)O)c(=O)c23)c1` | 4.878 |
| `CS(=O)(=O)N1CCc2ncc(CNC(=O)C3CCC3)n2CC1` | 0 |
| `CC(c1nc(C2CC2)no1)N1CCN(c2ccc(C#N)cn2)CC1` (stereo not given) | 0 |
| `Cc1ccc(-n2c(COC(C)C)n[nH]c2=O)cc1` | 0.5405 |
| `CN1CC(c2ccccc2)CC2(CCN(C(=O)c3cccnn3)CC2)C1` (stereo not given) | 5.102 |
| `CCNC(=O)[C@@H]1C[C@H](N)CN1C1CCN(c2ccccc2OC)CC1` | 8.427 |
| `O=C(c1cc2c(s1)CCCC2)N1CCc2nc(C3CCCN3)ncc2C1` (stereo not given) | 2.985 |
| `Cc1nnc(C2Cc3ccccc3CN2Cc2c(C)noc2C)o1` (stereo not given) | 6.706 |
| `O=C(O)c1ccccc1-c1cnc(Cn2c(=O)cc[nH]c2=O)s1` | 5.426 |
| `COc1ccc(Cl)cc1C(=O)N1CCOC2(CNCCOC2)C1` (stereo not given) | 6.667 |
| `Cc1cc2ccccc2n1CCC(=O)NCCS(C)(=O)=O` | 6.696 |

The last 9 entries again:

* CC(c1nc(C2CC2)no1)N1CCN(c2ccc(C#N)cn2)CC1 (stereo not given) : 0%
* Cc1ccc(-n2c(COC(C)C)n[nH]c2=O)cc1 : 0.5405%
* CN1CC(c2ccccc2)CC2(CCN(C(=O)c3cccnn3)CC2)C1 (stereo not given) : 5.102%
* CCNC(=O)[C@@H]1C[C@H](N)CN1C1CCN(c2ccccc2OC)CC1 : 8.427%
* O=C(c1cc2c(s1)CCCC2)N1CCc2nc(C3CCCN3)ncc2C1 (stereo not given) : 2.985%
* Cc1nnc(C2Cc3ccccc3CN2Cc2c(C)noc2C)o1 (stereo not given) : 6.706%
* O=C(O)c1ccccc1-c1cnc(Cn2c(=O)cc[nH]c2=O)s1 : 5.426%
* COc1ccc(Cl)cc1C(=O)N1CCOC2(CNCCOC2)C1 (stereo not given) : 6.667%
* Cc1cc2ccccc2n1CCC(=O)NCCS(C)(=O)=O : 6.696%

From ChEMBL document CHEMBL3988442, “University of Dundee, Small-Polar-MMV Screening Library” (2021).